Results: patent US20250195677A1
Results are given in words; binding and its absence hold for the method and conditions named. Some results given as binding are weak or reduced against the parent protein; the word gives no strength.

Biological target: PD1
Assay: SPR sandwich, CM5 chip: PD-1 first captured by immobilised H7-767, then PD-L2 injected

B1: PD-L2 (ligand)
chain: LFTVTVPKELYIIEHGSNVTLECNFDTGSHVNLGAITASLQKVENDTSPHRERATLLEEQLPLGKASFHIPQVQVRDEGQYQCIIIYGVAWDYKYLTLKVKASYRKINTHILKVPETDEVELTCQATGYPLAEVSWPNVSVPANTSHSRTPEGLYQVTSVLRLKPPPGRNFSCVFWNTHVRELTLASIDLQSQMEPRTHPT
  binding: binds
